According to patent publication US8022177B2, “Peptides and calcium regulation in mammalian cells” (The Board of Trustees of the University of Illinois, priority 2005, dated 2011):

B1: γ4: rat calcium channel γ4 subunit (AF361341), SEQ ID NO:47 (protein, listed as Rattus norvegicus)
chain: MVRCDRGLQMLLTTAGAFAAFSLMAIAIGTDYWLYSSAHICNGTNLTMDDGPPPRRARGDLTHSGLWRVCCIEGIYKGHCFRINHFPEDNDYDHDSSEYLLRIVRASSVFPILSTILLLLGGLCIGAGRIYSRKNNIVLSAGILFVAAGLSNIIGIIVYISSNTGDPSDKRDEDKKNHYNYGWSFYFGALSFIVAETVGVLAVNIYIEKNKELRFKTKREFLKASSSSPYSRMPSYRYRRRRSRSSSRSTEASPSRDASPVGLKITGAIPMGELSMYTLSREPLKVTTAASYSPDQDAGFLQMHDFFQQDLKEGFHVSMLNRRTTPV
B2: γ6L: rat calcium channel γ6 subunit, long isoform (AF361343), SEQ ID NO:48 (protein, listed as Rattus norvegicus)
chain: MMWSNFFMQEEDRRRTAVGRRRAQEQQNLGLTPEREGKIKLGLLVAIVGATLAVLAVGTEFWVELNTYKTNGSAVCEAAHLGLWKVCIKRLWQADVPAGRETCGPAELPGEANCTYFKFFTTGENAHIFQRTTKKEVNLAAAVIAVLGLTAMALGCLCVIMVLSKGAEFLLRLGAVCFGLSGLLLFVSLEVFRHSVRALLQGVNPETPPAPRLAYEYSWSLGCGVGAGLILLLGGVCFLLLTLPSWPWRSLCPKRGGPTA

Test system: Cav3.1 protein
Assay: Western blot of Cav3.1 protein in fractions of HEK-293/Cav3.1 cells expressing γ subunits
Assay type: cell-based
Conditions: HEK-293/Cav3.1 cell fractions and total

| Molecule | Effect on Cav3.1 protein expression |
| --- | --- |
| B1 | No statistically significant effect |
| B2 | no down-regulation |
